B1: TRA2B (protein, UniProt P62995 1-288)
chain: MSDSGEQNYGERESRSASRSGSAHGSGKSARHTPARSRSKEDSRRSRSKSRSRSESRSRSRRSSRRHYTRSRSRSRSHRRSRSRSYSRDYRRRHSHSHSPMSTRRRHVGNRANPDPNCCLGVFGLSLYTTERDLREVFSKYGPIADVSIVYDQQSRRSRGFAFVYFENVDDAKEAKERANGMELDGRRIRVDFSITKRPHTPTPGIYMGRPTYGSSRRRDYYDRGYDRGYDDRDYYSRSYRGGGGGGGGWRAAQDRDQIYRRRSPSPYYSRGGYRSRSRSRSYSPRRY
B2: CPSF7 (protein, UniProt Q8N684 1-471)
chain: MSEGVDLIDIYADEEFNQDPEFNNTDQIDLYDDVLTATSQPSDDRSSSTEPPPPVRQEPSPKPNNKTPAILYTYSGLRNRRAAVYVGSFSWWTTDQQLIQVIRSIGVYDVVELKFAENRANGQSKGYAEVVVASENSVHKLLELLPGKVLNGEKVDVRPATRQNLSQFEAQARKRECVRVPRGGIPPRAHSRDSSDSADGRATPSENLVPSSARVDKPPSVLPYFNRPPSALPLMGLPPPPIPPPPPLSSSFGVPPPPPGIHYQHLMPPPPRLPPHLAVPPPGAIPPALHLNPAFFPPPNATVGPPPDTYMKASAPYNHHGSRDSGPPPSTVSEAEFEDIMKRNRAISSSAISKAVSGASAGDYSDAIETLLTAIAVIKQSRVANDERCRVLISSLKDCLHGIEAKSYSVGASGSSSRKRHRSRERSPSRSRESSRRHRDLLHNEDRHDDYFQERNREHERHRDRERDRHH

The chains behind the UniProt entries cited, without tags or fusion partners.
UniProt Q16630: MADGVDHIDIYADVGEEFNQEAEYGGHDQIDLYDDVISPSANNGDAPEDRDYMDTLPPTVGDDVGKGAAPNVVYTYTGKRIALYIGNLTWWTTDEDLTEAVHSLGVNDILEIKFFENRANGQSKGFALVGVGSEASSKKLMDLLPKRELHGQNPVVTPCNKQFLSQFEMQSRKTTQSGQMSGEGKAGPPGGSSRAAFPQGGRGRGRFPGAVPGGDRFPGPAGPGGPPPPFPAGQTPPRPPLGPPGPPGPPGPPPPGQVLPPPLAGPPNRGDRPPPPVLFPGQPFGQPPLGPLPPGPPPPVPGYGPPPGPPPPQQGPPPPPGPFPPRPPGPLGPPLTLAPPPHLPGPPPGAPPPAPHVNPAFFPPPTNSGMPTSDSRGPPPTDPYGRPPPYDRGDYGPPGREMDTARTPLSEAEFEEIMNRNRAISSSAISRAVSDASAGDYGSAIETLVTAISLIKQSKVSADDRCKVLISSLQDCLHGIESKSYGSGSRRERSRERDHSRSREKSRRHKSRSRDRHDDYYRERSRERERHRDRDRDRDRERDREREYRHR
UniProt O75494: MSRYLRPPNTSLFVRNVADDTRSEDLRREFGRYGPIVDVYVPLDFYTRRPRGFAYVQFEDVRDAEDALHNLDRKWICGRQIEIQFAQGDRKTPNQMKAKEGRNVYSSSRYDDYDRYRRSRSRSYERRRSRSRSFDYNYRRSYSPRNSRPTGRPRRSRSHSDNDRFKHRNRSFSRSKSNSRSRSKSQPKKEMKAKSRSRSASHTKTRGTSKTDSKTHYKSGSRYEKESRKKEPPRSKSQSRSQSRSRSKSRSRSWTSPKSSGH
UniProt Q9Y6M1: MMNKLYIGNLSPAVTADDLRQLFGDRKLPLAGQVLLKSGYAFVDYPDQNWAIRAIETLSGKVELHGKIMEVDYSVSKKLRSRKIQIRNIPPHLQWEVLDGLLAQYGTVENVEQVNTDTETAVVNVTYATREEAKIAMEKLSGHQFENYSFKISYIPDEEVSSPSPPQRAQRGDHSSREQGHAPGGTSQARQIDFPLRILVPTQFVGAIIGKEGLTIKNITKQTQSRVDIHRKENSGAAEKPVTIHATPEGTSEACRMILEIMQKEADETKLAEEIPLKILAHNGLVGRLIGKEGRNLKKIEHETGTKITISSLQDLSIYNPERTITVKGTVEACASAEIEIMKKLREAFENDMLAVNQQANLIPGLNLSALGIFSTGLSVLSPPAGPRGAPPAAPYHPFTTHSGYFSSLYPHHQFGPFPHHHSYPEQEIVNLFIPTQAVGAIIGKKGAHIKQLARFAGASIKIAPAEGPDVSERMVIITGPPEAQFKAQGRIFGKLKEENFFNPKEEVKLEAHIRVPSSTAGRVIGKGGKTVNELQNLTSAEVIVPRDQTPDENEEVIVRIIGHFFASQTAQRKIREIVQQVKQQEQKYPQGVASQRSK
UniProt O00425: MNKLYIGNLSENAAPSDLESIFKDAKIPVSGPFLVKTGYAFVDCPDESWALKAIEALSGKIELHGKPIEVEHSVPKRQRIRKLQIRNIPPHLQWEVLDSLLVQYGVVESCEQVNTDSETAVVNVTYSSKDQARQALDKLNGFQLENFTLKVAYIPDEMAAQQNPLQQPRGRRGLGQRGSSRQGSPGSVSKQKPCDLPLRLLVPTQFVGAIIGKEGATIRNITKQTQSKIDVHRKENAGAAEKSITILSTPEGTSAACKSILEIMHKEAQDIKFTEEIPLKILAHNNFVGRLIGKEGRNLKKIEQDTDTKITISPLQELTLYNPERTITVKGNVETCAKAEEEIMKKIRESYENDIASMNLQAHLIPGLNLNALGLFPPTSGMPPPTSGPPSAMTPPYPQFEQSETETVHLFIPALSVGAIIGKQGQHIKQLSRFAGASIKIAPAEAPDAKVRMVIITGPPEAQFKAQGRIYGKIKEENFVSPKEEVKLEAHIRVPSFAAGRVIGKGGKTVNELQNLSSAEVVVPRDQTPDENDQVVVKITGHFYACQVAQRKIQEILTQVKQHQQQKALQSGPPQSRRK

These are yes or no findings as the source states them, for the method shown. Binding seen in cells or lysates may run through a third protein. Here binding means that the protein was enriched with, or labelled near, the bait; the list need not be complete.

The record followed here is article PMC12238680.

This assay has as its target CPSF6 (human (endogenous in HeLa, A2780, OVCAR3, SKOV3)) (UniProt Q16630). Nature of the assay: affinity purification with mass spectrometry; IP of endogenous CPSF6 (rabbit polyclonal antibody) from OVCAR3 lysate with or without RNase A (200 ng/mL); proteins common to both.
As to SRSF10 (from UniProt O75494 1-262), the binding result is “binds”.

IGF2BP2 (from UniProt Q9Y6M1 1-599): the binding entry is reported as “binds”. With IGF2BP3 (from UniProt O00425 1-579) the entry was “binds”. For the molecule B1, the binding entry is “binds”. In the case of B2, the binding entry is recorded as “binds”.
